Measured values from publication PMC12723715.
These are yes or no findings as the source states them, for the method shown. In cells and extracts the contact can be indirect. Some binding calls cover weakened binding; strength is not graded here.

Chains of the proteins cited; added tags and fusions are not shown.
UniProt Q14152: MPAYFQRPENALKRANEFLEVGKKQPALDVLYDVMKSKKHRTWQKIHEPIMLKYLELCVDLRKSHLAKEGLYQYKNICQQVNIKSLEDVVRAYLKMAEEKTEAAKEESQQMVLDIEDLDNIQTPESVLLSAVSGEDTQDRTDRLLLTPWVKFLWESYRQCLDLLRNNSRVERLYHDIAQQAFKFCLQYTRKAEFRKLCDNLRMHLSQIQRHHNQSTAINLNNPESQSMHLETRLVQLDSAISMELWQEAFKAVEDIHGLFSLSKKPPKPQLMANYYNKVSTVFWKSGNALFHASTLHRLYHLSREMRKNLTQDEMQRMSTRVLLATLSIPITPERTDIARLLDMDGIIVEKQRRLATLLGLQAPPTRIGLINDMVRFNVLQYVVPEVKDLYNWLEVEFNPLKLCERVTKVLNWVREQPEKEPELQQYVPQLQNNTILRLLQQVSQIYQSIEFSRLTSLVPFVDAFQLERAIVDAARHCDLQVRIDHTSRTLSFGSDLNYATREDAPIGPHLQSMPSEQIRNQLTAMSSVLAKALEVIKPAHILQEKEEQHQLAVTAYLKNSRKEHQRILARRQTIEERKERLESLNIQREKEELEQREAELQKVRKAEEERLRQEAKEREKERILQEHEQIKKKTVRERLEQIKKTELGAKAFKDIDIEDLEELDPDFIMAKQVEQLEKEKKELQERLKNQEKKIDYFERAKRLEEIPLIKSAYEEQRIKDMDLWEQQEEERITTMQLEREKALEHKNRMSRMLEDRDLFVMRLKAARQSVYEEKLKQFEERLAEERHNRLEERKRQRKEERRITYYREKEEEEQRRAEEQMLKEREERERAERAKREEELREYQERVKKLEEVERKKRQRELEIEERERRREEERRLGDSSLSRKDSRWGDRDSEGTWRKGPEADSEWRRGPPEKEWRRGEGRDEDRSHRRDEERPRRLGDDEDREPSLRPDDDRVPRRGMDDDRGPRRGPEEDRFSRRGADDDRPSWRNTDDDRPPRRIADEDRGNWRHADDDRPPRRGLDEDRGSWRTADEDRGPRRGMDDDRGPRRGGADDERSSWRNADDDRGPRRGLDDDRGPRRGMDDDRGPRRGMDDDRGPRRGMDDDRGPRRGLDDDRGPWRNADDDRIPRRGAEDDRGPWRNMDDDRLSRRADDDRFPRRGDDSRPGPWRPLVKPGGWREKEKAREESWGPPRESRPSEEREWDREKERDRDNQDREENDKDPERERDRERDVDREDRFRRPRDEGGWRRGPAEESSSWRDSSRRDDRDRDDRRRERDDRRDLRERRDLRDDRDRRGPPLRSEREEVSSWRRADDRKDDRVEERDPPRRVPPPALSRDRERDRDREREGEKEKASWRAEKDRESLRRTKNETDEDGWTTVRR
UniProt Q99613: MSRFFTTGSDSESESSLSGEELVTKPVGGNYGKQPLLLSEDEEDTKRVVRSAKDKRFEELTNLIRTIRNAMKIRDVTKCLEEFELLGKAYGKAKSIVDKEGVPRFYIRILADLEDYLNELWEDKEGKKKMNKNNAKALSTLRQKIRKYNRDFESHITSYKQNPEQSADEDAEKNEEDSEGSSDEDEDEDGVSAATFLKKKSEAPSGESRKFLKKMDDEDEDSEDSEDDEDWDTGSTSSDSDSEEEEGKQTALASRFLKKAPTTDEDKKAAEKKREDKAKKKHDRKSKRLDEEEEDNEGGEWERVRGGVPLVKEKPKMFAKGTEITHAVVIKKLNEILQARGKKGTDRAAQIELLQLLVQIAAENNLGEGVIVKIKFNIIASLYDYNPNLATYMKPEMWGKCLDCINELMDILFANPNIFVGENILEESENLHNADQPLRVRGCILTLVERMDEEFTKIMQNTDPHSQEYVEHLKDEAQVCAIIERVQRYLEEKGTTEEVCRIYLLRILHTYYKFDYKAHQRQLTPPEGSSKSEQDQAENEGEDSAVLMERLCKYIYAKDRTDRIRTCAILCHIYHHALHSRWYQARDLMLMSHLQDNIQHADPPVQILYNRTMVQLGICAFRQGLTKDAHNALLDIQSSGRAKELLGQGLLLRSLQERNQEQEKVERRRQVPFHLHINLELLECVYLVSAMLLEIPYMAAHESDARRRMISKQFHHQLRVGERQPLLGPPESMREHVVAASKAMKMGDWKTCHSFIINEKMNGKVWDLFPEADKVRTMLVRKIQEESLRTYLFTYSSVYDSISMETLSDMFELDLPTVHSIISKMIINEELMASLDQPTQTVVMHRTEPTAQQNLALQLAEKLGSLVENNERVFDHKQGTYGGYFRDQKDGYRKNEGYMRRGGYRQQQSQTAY
UniProt P60228: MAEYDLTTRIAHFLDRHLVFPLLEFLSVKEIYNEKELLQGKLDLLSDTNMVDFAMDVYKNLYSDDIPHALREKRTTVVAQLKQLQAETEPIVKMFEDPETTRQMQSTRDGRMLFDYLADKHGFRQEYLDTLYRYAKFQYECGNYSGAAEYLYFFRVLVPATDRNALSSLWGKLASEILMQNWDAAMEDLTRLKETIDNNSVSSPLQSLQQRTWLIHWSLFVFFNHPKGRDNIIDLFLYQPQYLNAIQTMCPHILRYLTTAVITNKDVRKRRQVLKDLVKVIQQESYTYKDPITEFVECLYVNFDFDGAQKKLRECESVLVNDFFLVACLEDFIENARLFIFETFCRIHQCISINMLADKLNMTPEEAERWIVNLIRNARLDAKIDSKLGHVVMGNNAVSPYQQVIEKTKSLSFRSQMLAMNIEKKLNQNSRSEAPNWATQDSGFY
UniProt O00303: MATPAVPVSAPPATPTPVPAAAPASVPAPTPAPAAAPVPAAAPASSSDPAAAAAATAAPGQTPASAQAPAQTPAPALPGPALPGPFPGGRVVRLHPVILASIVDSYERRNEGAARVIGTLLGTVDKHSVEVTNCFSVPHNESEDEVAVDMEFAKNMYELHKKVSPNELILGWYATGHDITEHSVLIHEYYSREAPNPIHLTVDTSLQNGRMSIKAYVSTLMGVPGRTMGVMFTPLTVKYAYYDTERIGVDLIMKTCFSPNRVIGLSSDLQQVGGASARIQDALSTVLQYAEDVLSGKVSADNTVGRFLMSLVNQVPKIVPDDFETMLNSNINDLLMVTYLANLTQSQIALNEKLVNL
UniProt Q9Y262: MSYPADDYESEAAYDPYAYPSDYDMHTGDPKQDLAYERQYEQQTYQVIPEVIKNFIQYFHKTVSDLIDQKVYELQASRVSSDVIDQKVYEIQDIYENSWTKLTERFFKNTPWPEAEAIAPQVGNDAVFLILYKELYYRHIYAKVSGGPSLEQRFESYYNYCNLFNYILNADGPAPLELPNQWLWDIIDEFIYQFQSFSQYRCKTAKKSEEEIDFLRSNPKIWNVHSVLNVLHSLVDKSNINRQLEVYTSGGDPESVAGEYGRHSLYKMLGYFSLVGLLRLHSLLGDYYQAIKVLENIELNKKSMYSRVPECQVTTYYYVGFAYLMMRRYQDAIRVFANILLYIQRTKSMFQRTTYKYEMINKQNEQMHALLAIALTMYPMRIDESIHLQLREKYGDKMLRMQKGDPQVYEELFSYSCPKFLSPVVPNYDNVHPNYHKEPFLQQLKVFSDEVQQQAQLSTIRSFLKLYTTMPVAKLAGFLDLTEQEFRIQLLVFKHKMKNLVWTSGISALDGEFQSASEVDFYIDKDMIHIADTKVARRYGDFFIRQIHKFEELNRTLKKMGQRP
UniProt Q9UBQ5: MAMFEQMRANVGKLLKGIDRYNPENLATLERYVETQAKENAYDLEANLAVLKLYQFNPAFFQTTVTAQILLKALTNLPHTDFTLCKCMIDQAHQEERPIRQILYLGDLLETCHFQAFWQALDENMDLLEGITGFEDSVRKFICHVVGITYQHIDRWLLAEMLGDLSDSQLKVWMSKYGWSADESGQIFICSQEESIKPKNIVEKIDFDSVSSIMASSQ

Tests used:
[1] = molecular target: human eIF3a with STREP tag in place of the FLAG tag (human) (UniProt Q14152); test: pull-down + SEC; modified system: Strep tag on eIF3a (none on eIF3c); same workflow (Strep affinity, Heparin, SEC); analytical SEC on Superose6 3.2/300 and SDS-PAGE of fractions
[2] = molecular target: human eIF3c with C-terminal Strep tag (human) (UniProt Q99613); test: pull-down; small-scale test: Strep tag on eIF3c captured on MagStrep Strep-Tactin XT beads from cleared Hi5 lysate (co-infection pBIG2AB/CD; hypotonic lysis buffer), 2 h at 4°C; 3 washes with 20 mM Hepes-KOH pH 7.5, 100 mM KCl, 10% glycerol, 1 mM DTT; eluate on SDS-PAGE, Coomassie
[3] = molecular target: human eIF3c with C-terminal Strep tag (human) (UniProt Q99613); test: pull-down + SEC; eIF3-∆bgi expressed without eIF3b, g, i; Strep tag on eIF3c captured by Streptactin chromatography from lysate; Heparin; Superose6 SEC; SDS-PAGE, Western blot, mass photometry at 50 nM

Substance	binding [1]	binding [2]	binding [3]
human eIF3e (from UniProt P60228 1-445)	binds		
human eIF3f (from UniProt O00303 1-357)	binds	binds	binds
human eIF3l (from UniProt Q9Y262 1-564)	binds	binds	binds
human eIF3k (from UniProt Q9UBQ5 1-218)	binds	binds	binds
